# Laboratory results as given in paper doi:10.1101/2024.10.11.617635 (bioRxiv, 2024).
# By UniProt entry, the sequences of proteins in these tests, tags left out. Where a name states a change or a piece, a line headed by the entry shows the natural chain unless it says otherwise. Residues count along the entry.
# UniProt Q96LA8, whole entry: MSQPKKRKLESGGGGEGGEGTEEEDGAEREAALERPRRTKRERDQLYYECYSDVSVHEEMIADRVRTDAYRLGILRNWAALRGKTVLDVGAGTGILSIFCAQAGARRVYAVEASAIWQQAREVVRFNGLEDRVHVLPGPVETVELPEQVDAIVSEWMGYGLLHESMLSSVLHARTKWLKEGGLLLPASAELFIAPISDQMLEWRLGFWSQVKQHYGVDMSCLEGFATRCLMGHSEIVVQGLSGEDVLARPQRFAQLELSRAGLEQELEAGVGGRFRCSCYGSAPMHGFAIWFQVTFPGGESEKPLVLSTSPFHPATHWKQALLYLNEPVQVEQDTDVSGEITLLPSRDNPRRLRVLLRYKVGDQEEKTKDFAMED
# UniProt Q96LA8, 86-375: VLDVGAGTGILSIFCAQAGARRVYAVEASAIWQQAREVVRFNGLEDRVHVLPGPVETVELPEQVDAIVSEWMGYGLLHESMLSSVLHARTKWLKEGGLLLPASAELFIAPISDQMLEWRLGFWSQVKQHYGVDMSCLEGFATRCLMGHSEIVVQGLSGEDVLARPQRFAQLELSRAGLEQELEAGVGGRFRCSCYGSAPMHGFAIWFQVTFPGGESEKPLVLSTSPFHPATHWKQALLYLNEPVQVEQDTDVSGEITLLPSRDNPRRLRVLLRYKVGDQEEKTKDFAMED
# UniProt Q96LA8, 1-182, stated change not applied: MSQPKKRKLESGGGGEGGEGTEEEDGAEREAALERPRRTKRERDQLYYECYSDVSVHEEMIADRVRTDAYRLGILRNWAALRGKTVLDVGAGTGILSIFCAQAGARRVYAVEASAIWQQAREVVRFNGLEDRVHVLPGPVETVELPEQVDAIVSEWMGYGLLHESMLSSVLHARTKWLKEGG
# Results are given in words; binding and its absence hold for the method and conditions named. For some assays here: Binding seen in cells or lysates may run through a third protein. Some binding calls cover weakened binding; strength is not graded here. For some assays here: Where a sequence is shown, tags or fusion partners need not be part of it.
# B1: NADK overexpressed in HEK293T cells (enzyme, UniProt O95544 1-446)
# chain: MEMEQEKMTMNKELSPDAAAYCCSACHGDETWSYNHPIRGRAKSRSLSASPALGSTKEFRRTRSLHGPCPVTTFGPKACVLQNPQTIMHIQDPASQRLTWNKSPKSVLVIKKMRDASLLQPFKELCTHLMEENMIVYVEKKVLEDPAIASDESFGAVKKKFCTFREDYDDISNQIDFIICLGGDGTLLYASSLFQGSVPPVMAFHLGSLGFLTPFSFENFQSQVTQVIEGNAAVVLRSRLKVRVVKELRGKKTAVHNGLGENGSQAAGLDMDVGKQAMQYQVLNEVVIDRGPSSYLSNVDVYLDGHLITTVQGDGVIVSTPTGSTAYAAAAGASMIHPNVPAIMITPICPHSLSFRPIVVPAGVELKIMLSPEARNTAWVSFDGRKRQEIRHGDSISITTSCYPLPSICVRDPVSDWFESLAQCLHWNVRKKQAHFEEEEEEEEEG
# B2: GST-NADK (enzyme, UniProt O95544 1-446)
# chain: B1 chain
# Columns and labels:
# [1] = biological target: T1, HA-tagged full-length NADK (human) (UniProt O95544); test: co-IP
# T1 sequence: B1 chain
# [2] = biological target: FLAG-tagged NADK N2 construct (residues 106-446) (human) (UniProt O95544); test: co-IP
# [3] = biological target: T2, FLAG-tagged full-length NADK (human) (UniProt O95544); test: co-IP
# T2 sequence: B1 chain
# GST-NADK (human) = biological target: T3, GST-NADK (human) (UniProt O95544); test: pull-down
# T3 sequence: B1 chain
# [4] = biological target: T4, endogenous NADK (human (endogenous in HEK293T)) (UniProt O95544); test: co-IP
# T4 sequence: B1 chain
# GST-PRMT6 = GST-PRMT6 (UniProt Q96LA8); test: pull-down
# HIS-PRMT6 = HIS-PRMT6 (UniProt Q96LA8); test: pull-down
molecule,measurement,setting,value
FLAG-tagged PRMT6 D1 truncation mutant (1-182) (from UniProt Q96LA8 1-182) (domain or fragment),binding,[1],no binding
FLAG-tagged PRMT6 D2 construct (from UniProt Q96LA8 86-375) (domain or fragment),binding,[1],binds
FLAG-tagged PRMT6 D3 construct (from UniProt Q96LA8 1-375) (domain or fragment),binding,[1],binds
FLAG-tagged full-length PRMT6 (from UniProt Q96LA8 1-375) (enzyme),binding,[1],binds
HA-tagged full-length PRMT6 (from UniProt Q96LA8 1-375) (enzyme),binding,[2],binds
same,binding,[3],binds
HIS-PRMT6 (from UniProt Q96LA8 1-375) (enzyme),binding,GST-NADK (human),binds
PRMT6 overexpressed in HEK293T cells (from UniProt Q96LA8 1-375) (enzyme),binding,GST-NADK (human),binds
endogenous PRMT6 (from UniProt Q96LA8 1-375) (enzyme),binding,[4],binds
B1,binding,GST-PRMT6,binds
B2,binding,HIS-PRMT6,binds
